Results taken from the supplement of paper PMC12823440, “Inhibitors supercharge kinase turnover through native proteolytic circuits” (Nature, 2025).
The other results are listed elsewhere or left out. Hit calls seldom repeat between salt and free forms of one compound.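 In K562 cells expressing nanoluciferase-fused kinases, luminescence was recorded at 4 h intervals between 2 and 18 h, normalized as percent of control with DMSO at 100% and a positive control at 0%. A significant (2 sigma) signal drop marks a time point as decreased. The authors' rule for a hit is not shown and takes in more than the number of time points.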

The chains behind the UniProt entries cited, without tags or fusion partners. Where a name states a change or a piece, a line headed by the entry shows the natural chain unless it says otherwise.
UniProt Q06187: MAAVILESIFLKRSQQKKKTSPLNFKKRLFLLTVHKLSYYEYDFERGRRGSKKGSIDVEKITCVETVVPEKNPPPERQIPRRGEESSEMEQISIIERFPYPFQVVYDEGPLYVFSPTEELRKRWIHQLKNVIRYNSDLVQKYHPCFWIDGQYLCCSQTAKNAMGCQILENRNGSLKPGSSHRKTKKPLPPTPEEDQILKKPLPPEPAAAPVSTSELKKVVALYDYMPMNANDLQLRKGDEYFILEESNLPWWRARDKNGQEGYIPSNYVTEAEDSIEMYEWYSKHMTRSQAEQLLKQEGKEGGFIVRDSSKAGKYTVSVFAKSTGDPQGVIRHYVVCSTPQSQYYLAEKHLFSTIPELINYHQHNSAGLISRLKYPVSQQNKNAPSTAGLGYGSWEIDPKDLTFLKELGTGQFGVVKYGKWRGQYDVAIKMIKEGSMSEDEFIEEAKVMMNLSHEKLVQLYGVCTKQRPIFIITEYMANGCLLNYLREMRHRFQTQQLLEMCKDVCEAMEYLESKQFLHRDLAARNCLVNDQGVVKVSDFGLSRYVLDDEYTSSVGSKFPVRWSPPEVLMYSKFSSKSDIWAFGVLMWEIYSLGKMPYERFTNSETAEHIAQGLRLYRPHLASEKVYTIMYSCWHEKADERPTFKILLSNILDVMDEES
UniProt Q9UQM7, whole entry: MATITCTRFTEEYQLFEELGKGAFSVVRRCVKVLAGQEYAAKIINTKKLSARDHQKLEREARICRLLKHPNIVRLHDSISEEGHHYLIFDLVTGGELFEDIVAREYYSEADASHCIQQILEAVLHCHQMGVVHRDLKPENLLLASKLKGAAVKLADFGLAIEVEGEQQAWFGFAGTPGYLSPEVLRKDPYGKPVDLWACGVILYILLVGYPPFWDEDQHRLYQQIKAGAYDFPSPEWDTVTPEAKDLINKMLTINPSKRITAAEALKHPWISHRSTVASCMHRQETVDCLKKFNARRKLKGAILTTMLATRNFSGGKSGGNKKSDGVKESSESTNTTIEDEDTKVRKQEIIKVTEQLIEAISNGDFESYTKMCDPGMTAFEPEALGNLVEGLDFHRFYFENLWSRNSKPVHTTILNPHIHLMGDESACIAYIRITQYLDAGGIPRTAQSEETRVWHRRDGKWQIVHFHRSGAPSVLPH
UniProt Q13555: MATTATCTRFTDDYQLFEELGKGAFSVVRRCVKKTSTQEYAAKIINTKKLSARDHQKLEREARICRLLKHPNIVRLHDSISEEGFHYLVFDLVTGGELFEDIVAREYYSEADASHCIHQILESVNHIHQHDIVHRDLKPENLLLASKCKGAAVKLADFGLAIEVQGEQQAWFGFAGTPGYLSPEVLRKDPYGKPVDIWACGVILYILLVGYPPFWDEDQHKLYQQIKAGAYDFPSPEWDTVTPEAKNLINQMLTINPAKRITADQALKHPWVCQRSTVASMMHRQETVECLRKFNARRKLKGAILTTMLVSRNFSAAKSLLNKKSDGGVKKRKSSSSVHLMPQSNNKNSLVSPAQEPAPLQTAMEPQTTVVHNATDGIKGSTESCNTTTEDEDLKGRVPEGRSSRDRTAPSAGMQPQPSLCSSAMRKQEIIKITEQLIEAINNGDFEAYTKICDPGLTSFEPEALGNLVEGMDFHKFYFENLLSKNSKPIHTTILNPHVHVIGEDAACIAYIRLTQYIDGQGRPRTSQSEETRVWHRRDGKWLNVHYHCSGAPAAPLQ
UniProt Q15131: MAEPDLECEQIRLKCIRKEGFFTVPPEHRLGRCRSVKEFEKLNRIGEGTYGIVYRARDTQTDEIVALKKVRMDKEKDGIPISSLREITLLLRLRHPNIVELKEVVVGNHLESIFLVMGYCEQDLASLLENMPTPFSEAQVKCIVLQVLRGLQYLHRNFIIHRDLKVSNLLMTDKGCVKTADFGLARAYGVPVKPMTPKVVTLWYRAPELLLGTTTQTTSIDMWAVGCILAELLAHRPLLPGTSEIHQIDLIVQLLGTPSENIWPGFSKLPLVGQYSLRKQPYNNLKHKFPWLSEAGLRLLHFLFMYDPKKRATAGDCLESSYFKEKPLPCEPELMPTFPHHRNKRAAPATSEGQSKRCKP
UniProt Q00526: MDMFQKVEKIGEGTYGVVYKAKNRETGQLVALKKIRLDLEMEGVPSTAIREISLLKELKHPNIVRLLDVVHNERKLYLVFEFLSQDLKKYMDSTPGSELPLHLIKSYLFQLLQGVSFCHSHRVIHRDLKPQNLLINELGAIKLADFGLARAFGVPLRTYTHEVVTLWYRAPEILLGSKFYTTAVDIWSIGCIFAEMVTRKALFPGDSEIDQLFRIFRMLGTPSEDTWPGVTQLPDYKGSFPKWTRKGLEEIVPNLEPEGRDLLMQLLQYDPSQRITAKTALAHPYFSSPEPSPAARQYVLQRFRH
UniProt P11802: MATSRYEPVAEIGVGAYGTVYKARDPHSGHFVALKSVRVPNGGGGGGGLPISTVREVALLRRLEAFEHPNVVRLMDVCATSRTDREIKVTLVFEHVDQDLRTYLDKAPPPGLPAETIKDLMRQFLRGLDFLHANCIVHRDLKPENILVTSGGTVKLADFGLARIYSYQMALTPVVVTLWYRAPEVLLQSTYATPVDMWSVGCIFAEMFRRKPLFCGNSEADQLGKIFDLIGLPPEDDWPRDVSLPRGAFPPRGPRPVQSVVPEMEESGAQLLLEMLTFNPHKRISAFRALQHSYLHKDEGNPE
UniProt Q00535, whole entry, looked up: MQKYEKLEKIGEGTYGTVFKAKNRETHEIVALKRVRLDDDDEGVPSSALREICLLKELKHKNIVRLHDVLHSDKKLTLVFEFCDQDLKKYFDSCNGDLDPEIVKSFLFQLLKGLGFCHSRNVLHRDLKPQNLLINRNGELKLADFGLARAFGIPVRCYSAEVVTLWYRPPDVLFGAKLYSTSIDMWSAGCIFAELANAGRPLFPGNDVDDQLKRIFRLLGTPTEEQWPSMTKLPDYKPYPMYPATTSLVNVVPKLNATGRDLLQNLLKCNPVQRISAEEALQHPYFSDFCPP
UniProt Q00534, whole entry: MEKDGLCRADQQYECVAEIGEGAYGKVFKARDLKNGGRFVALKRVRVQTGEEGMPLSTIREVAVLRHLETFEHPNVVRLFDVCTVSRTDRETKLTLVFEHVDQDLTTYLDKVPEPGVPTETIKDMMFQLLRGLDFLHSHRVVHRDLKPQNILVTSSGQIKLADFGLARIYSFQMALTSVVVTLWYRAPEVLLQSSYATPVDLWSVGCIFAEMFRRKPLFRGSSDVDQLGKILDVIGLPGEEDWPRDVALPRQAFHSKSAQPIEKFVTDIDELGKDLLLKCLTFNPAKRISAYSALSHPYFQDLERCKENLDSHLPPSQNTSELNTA
UniProt P50613: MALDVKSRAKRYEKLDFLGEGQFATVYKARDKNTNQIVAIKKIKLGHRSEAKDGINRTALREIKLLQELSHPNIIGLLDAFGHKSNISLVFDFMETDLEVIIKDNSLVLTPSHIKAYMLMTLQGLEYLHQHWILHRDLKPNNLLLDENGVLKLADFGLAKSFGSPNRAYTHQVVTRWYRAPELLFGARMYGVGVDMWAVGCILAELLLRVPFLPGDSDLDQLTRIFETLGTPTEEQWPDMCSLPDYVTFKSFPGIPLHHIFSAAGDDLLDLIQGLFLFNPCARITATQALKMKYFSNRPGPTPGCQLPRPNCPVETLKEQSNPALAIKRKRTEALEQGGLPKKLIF
UniProt P50750, whole entry: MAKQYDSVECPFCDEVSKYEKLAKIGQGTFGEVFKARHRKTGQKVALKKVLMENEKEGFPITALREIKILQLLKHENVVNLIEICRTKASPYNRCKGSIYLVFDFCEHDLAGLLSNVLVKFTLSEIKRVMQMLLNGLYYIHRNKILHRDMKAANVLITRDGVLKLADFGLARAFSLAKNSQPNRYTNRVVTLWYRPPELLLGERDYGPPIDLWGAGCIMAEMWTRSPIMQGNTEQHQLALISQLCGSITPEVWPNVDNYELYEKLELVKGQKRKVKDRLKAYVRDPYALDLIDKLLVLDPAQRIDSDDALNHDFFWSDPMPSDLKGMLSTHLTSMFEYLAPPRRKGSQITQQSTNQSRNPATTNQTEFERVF
UniProt O96017, whole entry: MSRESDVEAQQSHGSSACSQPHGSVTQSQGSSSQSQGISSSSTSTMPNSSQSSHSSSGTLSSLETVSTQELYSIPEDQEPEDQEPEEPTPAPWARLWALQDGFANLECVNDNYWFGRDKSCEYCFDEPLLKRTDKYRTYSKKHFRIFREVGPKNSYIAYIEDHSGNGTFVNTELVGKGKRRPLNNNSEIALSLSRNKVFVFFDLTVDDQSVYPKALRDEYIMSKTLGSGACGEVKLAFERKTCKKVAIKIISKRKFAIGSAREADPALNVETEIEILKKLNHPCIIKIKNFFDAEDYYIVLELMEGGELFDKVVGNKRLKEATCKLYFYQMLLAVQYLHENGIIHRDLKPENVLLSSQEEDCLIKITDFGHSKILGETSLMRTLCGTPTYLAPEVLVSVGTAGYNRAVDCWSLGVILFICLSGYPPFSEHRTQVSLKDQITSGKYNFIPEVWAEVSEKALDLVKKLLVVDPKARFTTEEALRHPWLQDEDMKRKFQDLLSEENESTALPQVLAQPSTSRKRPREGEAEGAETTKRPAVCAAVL
UniProt P07333, whole entry: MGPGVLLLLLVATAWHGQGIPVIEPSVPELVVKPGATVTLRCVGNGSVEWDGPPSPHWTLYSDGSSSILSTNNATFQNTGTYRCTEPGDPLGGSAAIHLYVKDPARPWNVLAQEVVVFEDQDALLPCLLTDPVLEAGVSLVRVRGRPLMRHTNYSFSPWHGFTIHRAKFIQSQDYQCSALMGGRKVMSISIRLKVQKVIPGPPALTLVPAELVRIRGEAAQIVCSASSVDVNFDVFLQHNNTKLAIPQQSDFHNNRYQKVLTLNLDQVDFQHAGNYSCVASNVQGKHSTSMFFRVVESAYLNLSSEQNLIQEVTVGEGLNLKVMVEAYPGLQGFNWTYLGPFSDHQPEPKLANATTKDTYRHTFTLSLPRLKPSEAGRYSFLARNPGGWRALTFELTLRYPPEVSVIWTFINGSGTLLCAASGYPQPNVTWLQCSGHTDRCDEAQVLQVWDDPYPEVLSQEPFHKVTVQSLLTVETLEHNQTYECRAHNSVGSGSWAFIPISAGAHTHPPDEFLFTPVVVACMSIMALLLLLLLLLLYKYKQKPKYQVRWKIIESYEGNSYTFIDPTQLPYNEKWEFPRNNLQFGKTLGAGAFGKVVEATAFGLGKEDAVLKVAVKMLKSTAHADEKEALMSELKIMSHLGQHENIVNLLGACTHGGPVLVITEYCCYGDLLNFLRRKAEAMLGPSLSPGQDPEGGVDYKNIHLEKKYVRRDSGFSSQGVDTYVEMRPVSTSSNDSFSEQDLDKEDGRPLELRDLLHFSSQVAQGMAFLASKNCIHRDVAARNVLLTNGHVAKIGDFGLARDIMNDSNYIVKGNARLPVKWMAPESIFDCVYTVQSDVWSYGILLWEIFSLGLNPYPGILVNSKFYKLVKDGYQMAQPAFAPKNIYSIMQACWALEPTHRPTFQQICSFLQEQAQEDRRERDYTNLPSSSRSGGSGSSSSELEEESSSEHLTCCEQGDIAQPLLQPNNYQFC
UniProt P48730: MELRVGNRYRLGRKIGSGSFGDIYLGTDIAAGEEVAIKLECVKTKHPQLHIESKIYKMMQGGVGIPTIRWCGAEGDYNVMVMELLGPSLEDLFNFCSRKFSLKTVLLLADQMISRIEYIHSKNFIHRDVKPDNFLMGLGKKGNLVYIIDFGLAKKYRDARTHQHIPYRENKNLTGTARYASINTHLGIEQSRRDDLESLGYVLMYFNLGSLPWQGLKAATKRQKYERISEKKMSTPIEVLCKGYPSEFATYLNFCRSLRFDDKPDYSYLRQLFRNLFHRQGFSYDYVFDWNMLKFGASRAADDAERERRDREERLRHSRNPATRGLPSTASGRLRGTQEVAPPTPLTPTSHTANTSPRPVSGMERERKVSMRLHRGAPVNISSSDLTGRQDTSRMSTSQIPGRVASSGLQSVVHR
UniProt Q9Y463, whole entry, looked up: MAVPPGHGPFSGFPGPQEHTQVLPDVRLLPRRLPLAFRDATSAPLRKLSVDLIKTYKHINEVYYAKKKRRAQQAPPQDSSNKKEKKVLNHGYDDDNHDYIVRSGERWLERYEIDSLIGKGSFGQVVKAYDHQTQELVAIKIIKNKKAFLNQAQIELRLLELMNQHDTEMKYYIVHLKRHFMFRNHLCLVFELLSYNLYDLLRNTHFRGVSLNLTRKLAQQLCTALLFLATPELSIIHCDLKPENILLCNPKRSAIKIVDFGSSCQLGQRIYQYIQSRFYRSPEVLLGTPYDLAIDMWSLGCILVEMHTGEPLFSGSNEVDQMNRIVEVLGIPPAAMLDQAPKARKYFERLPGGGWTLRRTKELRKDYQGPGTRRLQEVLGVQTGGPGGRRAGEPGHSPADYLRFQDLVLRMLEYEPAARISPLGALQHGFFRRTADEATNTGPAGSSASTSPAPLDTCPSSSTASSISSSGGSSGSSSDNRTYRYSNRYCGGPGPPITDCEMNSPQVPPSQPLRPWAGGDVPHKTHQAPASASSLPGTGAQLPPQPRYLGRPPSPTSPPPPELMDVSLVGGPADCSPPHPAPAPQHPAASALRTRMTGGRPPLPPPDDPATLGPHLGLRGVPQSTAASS

What was measured:
Experiment in all cases: kinase-Nluc reporter destabilization hit call (1 = scored as downregulated) (binary); higher = compound decreases kinase abundance
Conditions in all cases: K562; 2-18 h
BRAF_V600E = tested on: BRAF_V600E
BTK = BTK (UniProt Q06187)
CAMK2A = CAMK2A (UniProt Q9UQM7)
CAMK2G = CAMK2G (UniProt Q13555)
CDK10 = CDK10 (UniProt Q15131)
CDK2 = CDK2 (UniProt P24941)
CDK3 = CDK3 (UniProt Q00526)
CDK4 = CDK4 (UniProt P11802)
CDK5 = CDK5 (UniProt Q00535)
CDK6 = CDK6 (UniProt Q00534)
CDK7 = CDK7 (UniProt P50613)
CDK9 = CDK9 (UniProt P50750)
CHEK2 = CHEK2 (UniProt O96017)
CSF1R = CSF1R (UniProt P07333)
CSK = CSK (UniProt P41240)
CSNK1A1 = CSNK1A1 (UniProt P48729)
CSNK1D = CSNK1D (UniProt P48730)
DDR1 = DDR1 (UniProt Q08345)
DYRK1B = DYRK1B (UniProt Q9Y463)
DYRK2 = DYRK2 (UniProt Q92630)

Measured: kinase-Nluc reporter destabilization hit call

Brc1ccc(CSc2nc3ccccc3o2)cc1 [BMP signaling agonist sb4] (10 µM)
inactive: BRAF_V600E 0 | BTK 0 | CAMK2A 0 | CAMK2G 0 | CDK10 = 0 | CDK2 = 0 | CDK3 = 0 | CDK4 = 0 | CDK5 = 0 | CDK6 = 0 | CDK7 = 0 | CDK9 = 0 | CHEK2 = 0 | CSF1R 0 | CSK 0 | CSNK1A1 = 0 | CSNK1D 0 | DDR1 = 0 | DYRK1B 0 | DYRK2 = 0

Cc1ccc(C)c(OCCn2cc(C(=O)O)c3ccccc32)c1 (10 µM)
inactive: BRAF_V600E 0 | BTK 0 | CAMK2A 0 | CAMK2G 0 | CDK10 = 0 | CDK2 = 0 | CDK3 = 0 | CDK4 = 0 | CDK5 = 0 | CDK6 = 0 | CDK7 = 0 | CDK9 = 0 | CHEK2 = 0 | CSF1R 0 | CSK 0 | CSNK1A1 = 0 | CSNK1D 0 | DDR1 = 0 | DYRK1B 0 | DYRK2 = 0

N#Cc1ccc2ncnc(NCCc3ccccc3)c2c1 [Senexin A] (10 µM)
inactive: BRAF_V600E 0 | BTK 0 | CAMK2A 0 | CAMK2G 0 | CDK10 = 0 | CDK2 = 0 | CDK3 = 0 | CDK4 = 0 | CDK5 = 0 | CDK6 = 0 | CDK7 = 0 | CDK9 = 0 | CHEK2 = 0 | CSF1R 0 | CSK 0 | CSNK1A1 = 0 | CSNK1D 0 | DDR1 = 0 | DYRK1B 0 | DYRK2 = 0

Cc1cc(C(=O)NOCCO)c(Nc2ccc(I)cc2F)n(C)c1=O (10 µM)
inactive: BRAF_V600E 0 | BTK 0 | CAMK2A 0 | CAMK2G 0 | CDK10 = 0 | CDK2 = 0 | CDK3 = 0 | CDK4 = 0 | CDK5 = 0 | CDK6 = 0 | CDK7 = 0 | CDK9 = 0 | CHEK2 = 0 | CSF1R 0 | CSK 0 | CSNK1A1 = 0 | CSNK1D 0 | DDR1 = 0 | DYRK1B 0 | DYRK2 = 0

NC(=O)c1cnc(-c2ccc(C3(N)CCC3)cc2)c(-c2ccccc2)c1 (10 µM)
inactive: BRAF_V600E 0 | BTK 0 | CAMK2A 0 | CAMK2G 0 | CDK10 = 0 | CDK2 = 0 | CDK3 = 0 | CDK4 = 0 | CDK5 = 0 | CDK6 = 0 | CDK7 = 0 | CDK9 = 0 | CHEK2 = 0 | CSF1R 0 | CSK 0 | CSNK1A1 = 0 | CSNK1D 0 | DDR1 = 0 | DYRK1B 0 | DYRK2 = 0

CCn1c(-c2nonc2N)nc2c(C#CC(C)(C)O)ncc(OC[C@H]3CCCNC3)c21 (10 µM)
inactive: BRAF_V600E 0 | BTK 0 | CAMK2A 0 | CAMK2G 0 | CDK10 = 0 | CDK2 = 0 | CDK3 = 0 | CDK4 = 0 | CDK5 = 0 | CDK6 = 0 | CDK7 = 0 | CDK9 = 0 | CHEK2 = 0 | CSF1R 0 | CSK 0 | CSNK1A1 = 0 | CSNK1D 0 | DDR1 = 0 | DYRK1B 0 | DYRK2 = 0

O=c1[nH]ccc2nc(-c3ccc(CN4CCC(c5nc(-c6ccccn6)n[nH]5)CC4)cc3)c(-c3ccccc3)cc12 (10 µM)
inactive: BRAF_V600E 0 | BTK 0 | CAMK2A 0 | CAMK2G 0 | CDK10 = 0 | CDK2 = 0 | CDK3 = 0 | CDK4 = 0 | CDK5 = 0 | CDK6 = 0 | CDK7 = 0 | CDK9 = 0 | CHEK2 = 0 | CSF1R 0 | CSK 0 | CSNK1A1 = 0 | CSNK1D 0 | DDR1 = 0 | DYRK1B 0 | DYRK2 = 0

COc1cc2ncnc(Nc3ccc(O)c(Br)c3)c2cc1OC (10 µM)
inactive: BRAF_V600E 0 | BTK 0 | CAMK2A 0 | CAMK2G 0 | CDK10 = 0 | CDK2 = 0 | CDK3 = 0 | CDK4 = 0 | CDK5 = 0 | CDK6 = 0 | CDK7 = 0 | CDK9 = 0 | CHEK2 = 0 | CSF1R 0 | CSK 0 | CSNK1A1 = 0 | CSNK1D 0 | DDR1 = 0 | DYRK1B 0 | DYRK2 = 0

Cc1nn(C)cc1-c1nc2c(N3CCN(Cc4ccc(Cl)cc4)CC3)c(Cl)cnc2[nH]1 (10 µM)
inactive: BRAF_V600E 0 | BTK 0 | CAMK2A 0 | CAMK2G 0 | CDK10 = 0 | CDK2 = 0 | CDK3 = 0 | CDK4 = 0 | CDK5 = 0 | CDK6 = 0 | CDK7 = 0 | CDK9 = 0 | CHEK2 = 0 | CSF1R 0 | CSK 0 | CSNK1A1 = 0 | CSNK1D 0 | DDR1 = 0 | DYRK1B 0 | DYRK2 = 0

COc1cc(-c2oc3cc(O)cc(O)c3c(=O)c2O)ccc1O [Isorhamnetin] (10 µM)
inactive: BRAF_V600E 0 | BTK 0 | CAMK2A 0 | CAMK2G 0 | CDK10 = 0 | CDK2 = 0 | CDK3 = 0 | CDK4 = 0 | CDK5 = 0 | CDK6 = 0 | CDK7 = 0 | CDK9 = 0 | CHEK2 = 0 | CSF1R 0 | CSK 0 | CSNK1A1 = 0 | CSNK1D 0 | DDR1 = 0 | DYRK1B 0 | DYRK2 = 0

O=C1CC[C@H](NC(=O)Cc2ccccc2)C(=O)N1 [Antineoplaston A10] (10 µM)
inactive: BRAF_V600E 0 | BTK 0 | CAMK2A 0 | CAMK2G 0 | CDK10 = 0 | CDK2 = 0 | CDK3 = 0 | CDK4 = 0 | CDK5 = 0 | CDK6 = 0 | CDK7 = 0 | CDK9 = 0 | CHEK2 = 0 | CSF1R 0 | CSK 0 | CSNK1A1 = 0 | CSNK1D 0 | DDR1 = 0 | DYRK1B 0 | DYRK2 = 0

Nc1nc(NCCNc2ncc(-n3ccnc3)c(-c3ccc(Cl)cc3Cl)n2)ccc1[N+](=O)[O-] (2.5 µM)
inactive: BRAF_V600E 0 | BTK 0 | CAMK2A 0 | CAMK2G 0 | CDK10 = 0 | CDK2 = 0 | CDK3 = 0 | CDK4 = 0 | CDK5 = 0 | CDK6 = 0 | CDK7 = 0 | CDK9 = 0 | CHEK2 = 0 | CSF1R 0 | CSK 0 | CSNK1A1 = 0 | CSNK1D 0 | DDR1 = 0 | DYRK1B 0 | DYRK2 = 0

CC(C)Oc1ccc(F)c(-c2cnc(N)c(C(=O)Nc3cnccc3N3CCC[C@@H](C(=O)O)C3)n2)c1 (2 µM)
inactive: BRAF_V600E 0 | BTK 0 | CAMK2A 0 | CAMK2G 0 | CDK10 = 0 | CDK2 = 0 | CDK3 = 0 | CDK4 = 0 | CDK5 = 0 | CDK6 = 0 | CDK7 = 0 | CDK9 = 0 | CHEK2 = 0 | CSF1R 0 | CSK 0 | CSNK1A1 = 0 | CSNK1D 0 | DDR1 = 0 | DYRK1B 0 | DYRK2 = 0

Oc1c(F)cc(-c2cnccc2-c2ccc(N3CCOCC3)cc2)cc1F (10 µM)
inactive: BRAF_V600E 0 | BTK 0 | CAMK2A 0 | CAMK2G 0 | CDK10 = 0 | CDK2 = 0 | CDK3 = 0 | CDK4 = 0 | CDK5 = 0 | CDK6 = 0 | CDK7 = 0 | CDK9 = 0 | CHEK2 = 0 | CSF1R 0 | CSK 0 | CSNK1A1 = 0 | CSNK1D 0 | DDR1 = 0 | DYRK1B 0 | DYRK2 = 0

Some of these compounds in order of length of the SMILES, rising:
O=C1CC[C@H](NC(=O)Cc2ccccc2)C(=O)N1 [Antineoplaston A10] (10 µM)
inactive: BRAF_V600E 0 | BTK 0 | CAMK2A 0 | CAMK2G 0 | CDK10 = 0 | CDK2 = 0 | CDK3 = 0 | CDK4 = 0 | CDK5 = 0 | CDK6 = 0 | CDK7 = 0 | CDK9 = 0 | CHEK2 = 0 | CSF1R 0 | CSK 0 | CSNK1A1 = 0 | CSNK1D 0 | DDR1 = 0 | DYRK1B 0 | DYRK2 = 0

Oc1c(F)cc(-c2cnccc2-c2ccc(N3CCOCC3)cc2)cc1F (10 µM)
inactive: BRAF_V600E 0 | BTK 0 | CAMK2A 0 | CAMK2G 0 | CDK10 = 0 | CDK2 = 0 | CDK3 = 0 | CDK4 = 0 | CDK5 = 0 | CDK6 = 0 | CDK7 = 0 | CDK9 = 0 | CHEK2 = 0 | CSF1R 0 | CSK 0 | CSNK1A1 = 0 | CSNK1D 0 | DDR1 = 0 | DYRK1B 0 | DYRK2 = 0

CC(C)Oc1ccc(F)c(-c2cnc(N)c(C(=O)Nc3cnccc3N3CCC[C@@H](C(=O)O)C3)n2)c1 (2 µM)
inactive: BRAF_V600E 0 | BTK 0 | CAMK2A 0 | CAMK2G 0 | CDK10 = 0 | CDK2 = 0 | CDK3 = 0 | CDK4 = 0 | CDK5 = 0 | CDK6 = 0 | CDK7 = 0 | CDK9 = 0 | CHEK2 = 0 | CSF1R 0 | CSK 0 | CSNK1A1 = 0 | CSNK1D 0 | DDR1 = 0 | DYRK1B 0 | DYRK2 = 0

Following part.

CO[C@H]1CC[C@H](N2C(=O)CNc3ncc(-c4ccc(C(C)(C)O)nc4)nc32)CC1 (2.5 µM)
inactive: BRAF_V600E 0 | BTK 0 | CAMK2A 0 | CAMK2G 0 | CDK10 = 0 | CDK2 = 0 | CDK3 = 0 | CDK4 = 0 | CDK5 = 0 | CDK6 = 0 | CDK7 = 0 | CDK9 = 0 | CHEK2 = 0 | CSF1R 0 | CSK 0 | CSNK1A1 = 0 | CSNK1D 0 | DDR1 = 0 | DYRK1B 0 | DYRK2 = 0

O=C(c1cccc(Cl)c1F)N1CCN(Cc2cccc(Nc3nccs3)n2)CC1 (2.5 µM)
inactive: BRAF_V600E 0 | BTK 0 | CAMK2A 0 | CAMK2G 0 | CDK10 = 0 | CDK2 = 0 | CDK3 = 0 | CDK4 = 0 | CDK5 = 0 | CDK6 = 0 | CDK7 = 0 | CDK9 = 0 | CHEK2 = 0 | CSF1R 0 | CSK 0 | CSNK1A1 = 0 | CSNK1D 0 | DDR1 = 0 | DYRK1B 0 | DYRK2 = 0

c1nc2c(NC3CCCCC3)nc(Nc3ccc(N4CCOCC4)cc3)nc2[nH]1 [Reversine] (10 µM)
inactive: BRAF_V600E 0 | BTK 0 | CAMK2A 0 | CAMK2G 0 | CDK10 = 0 | CDK2 = 0 | CDK3 = 0 | CDK4 = 0 | CDK5 = 0 | CDK6 = 0 | CDK7 = 0 | CDK9 = 0 | CHEK2 = 0 | CSF1R 0 | CSK 0 | CSNK1A1 = 0 | CSNK1D 0 | DDR1 = 0 | DYRK1B 0 | DYRK2 = 0

COC(=O)Nc1ccc(-c2nc(N3CCOCC3)c3cnn(C4CCN(Cc5cccnc5)CC4)c3n2)cc1 (10 µM)
inactive: BRAF_V600E 0 | BTK 0 | CAMK2A 0 | CAMK2G 0 | CDK10 = 0 | CDK2 = 0 | CDK3 = 0 | CDK4 = 0 | CDK5 = 0 | CDK6 = 0 | CDK7 = 0 | CDK9 = 0 | CHEK2 = 0 | CSF1R 0 | CSK 0 | CSNK1A1 = 0 | CSNK1D 0 | DDR1 = 0 | DYRK1B 0 | DYRK2 = 0
